The other results are listed elsewhere or left out.
target: T1, OsSMF1 (Oryza sativa, UniProt Q6ZLB0 1-436); test: protein-binding microarray (RPBM); PBS, 2% BSA, 51.3 ng/ul salmon testes DNA, 50 uM zinc acetate, 200 nM TF, 25 C, 1 h; high values mean tight binding; conditions: protein: recombinant; tags: N-terminal polyhistidine and DsRed monomer fusion (pET32a); chain copies: 2; label: CyDye5-dUTP incorporated in the synthesized complementary strand; 3' TTTTT single-stranded linker to array surface; dsDNA, one strand shown
T1 sequence: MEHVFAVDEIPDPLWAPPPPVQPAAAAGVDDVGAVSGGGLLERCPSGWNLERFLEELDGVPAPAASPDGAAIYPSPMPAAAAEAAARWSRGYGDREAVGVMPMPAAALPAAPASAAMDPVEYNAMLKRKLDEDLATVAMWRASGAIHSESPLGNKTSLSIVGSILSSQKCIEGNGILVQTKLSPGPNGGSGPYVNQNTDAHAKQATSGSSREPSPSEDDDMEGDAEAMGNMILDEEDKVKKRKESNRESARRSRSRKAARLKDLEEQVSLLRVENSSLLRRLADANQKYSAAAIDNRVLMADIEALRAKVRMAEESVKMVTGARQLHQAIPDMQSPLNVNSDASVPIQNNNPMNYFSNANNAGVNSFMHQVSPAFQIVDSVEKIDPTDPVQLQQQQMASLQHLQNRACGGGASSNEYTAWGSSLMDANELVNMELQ
Outline: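 Polyhistidine-tagged DsRed fusions of transcription factors, joined at the N-terminus, were expressed in E. coli BL21-CodonPlus and isolated on Ni–NTA. They were incubated at 200 nM for 1 h at 25 °C on a custom Agilent array, double-stranded and BSA-blocked, in PBS with 2% BSA, salmon testes DNA and 50 µM zinc acetate. The binding signal is per-feature fluorescence intensity (arbitrary units) read on an Axon 4000B scanner after washing.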

Sequence	binding signal
TTATCGCTATCGGCTGGTATCAGCATCGGCTATTATCGGCCGGAGTCACCTAGTGCAG	3840 fluorescence intensity (a.u.)
AGCCTTGCTCTTATGACGTAATGTCAGAGTGATATGAGTGCGGAGTCACCTAGTGCAG	6910 fluorescence intensity (a.u.)
CGTTTGGGCCACGTATAGTATCTTCTCGGGCCTAACCGGACGGAGTCACCTAGTGCAG	5970 fluorescence intensity (a.u.)
TGGCAACGGCAAGAGGATGATGTAGGCGTCGACGGCGGAGCGGAGTCACCTAGTGCAG	3280 fluorescence intensity (a.u.)
GAGAATTTCACACGTCAAGCATTCTACACAACGCTAGTGTCGGAGTCACCTAGTGCAG	4820 fluorescence intensity (a.u.)
ATTTCGGCCCAGTACACATTCTCAATTATTAGGAAGCCCACGGAGTCACCTAGTGCAG	27200 fluorescence intensity (a.u.)
TCTCACCTTGTTACATGTGTGTGTCGTGCAGGTAGTGAGTCGGAGTCACCTAGTGCAG	3140 fluorescence intensity (a.u.)
GTCCTTTTCTAATGATTCACCTTCACTTGATCCATCTGAGCGGAGTCACCTAGTGCAG	3980 fluorescence intensity (a.u.)
GTGTGGGGATAAACAGAGGTAGAGACATGTGTCAGATGACCGGAGTCACCTAGTGCAG	3150 fluorescence intensity (a.u.)
CTCGCGCTTGCGCCTCTGGATCCGCCGCGCGTGTCCACCTCGGAGTCACCTAGTGCAG	3600 fluorescence intensity (a.u.)
TAGTACTATGAATCTGGACAGATAATGTCACATCCTATACCGGAGTCACCTAGTGCAG	3720 fluorescence intensity (a.u.)
ACTGACTGCTACGTCTCTGTCTACGTATACCCCAGCCTCCCGGAGTCACCTAGTGCAG	3680 fluorescence intensity (a.u.)
CCTAAATAAGCTAGCAAAATAGCCAATGCCAGCCAATATTCGGAGTCACCTAGTGCAG	28300 fluorescence intensity (a.u.)
CCGACGGCGAACCTGACTCACCGGCGGCCGCGAGGAGGCGCGGAGTCACCTAGTGCAG	6180 fluorescence intensity (a.u.)
CCGCTGCCTTTGAGTGAGTCGTCGTCTTGAGTCACGACGACGGAGTCACCTAGTGCAG	5620 fluorescence intensity (a.u.)
CTCACTTTCCTCGTTTTCCGTACACATGCTTACCAAATTGCGGAGTCACCTAGTGCAG	4950 fluorescence intensity (a.u.)
GGGGTGAGGATGAAGATGATGATGATGATGACCCTGAGGCCGGAGTCACCTAGTGCAG	3180 fluorescence intensity (a.u.)
TCCAGCGAGAGGCGTACGTGAGTGCGTGCGTACGTGCGGGCGGAGTCACCTAGTGCAG	5230 fluorescence intensity (a.u.)
TGCATGTGCAAACCTGGGTTTGTACACGTACTGACCACAGCGGAGTCACCTAGTGCAG	5380 fluorescence intensity (a.u.)
TGTGCAGGTCCATCTAGTGTGTGCTGGAGGGAGGGAACGGCGGAGTCACCTAGTGCAG	3360 fluorescence intensity (a.u.)
GGCGAGGAGAGTCGCAACGACAGGTCATGGGTGCGGACACCGGAGTCACCTAGTGCAG	3320 fluorescence intensity (a.u.)

Sequence	binding signal
GCAGGTAAACAGCTCTATCAACCTGACCAGTAAAGACCATCGGAGTCACCTAGTGCAG	3270 fluorescence intensity (a.u.)
TTCTCTTCCTCCCCTCTATCTTCCACGTCACCAAATTTACCGGAGTCACCTAGTGCAG	16600 fluorescence intensity (a.u.)
CTGATGATGCACATACGTATGCACTGACGTAAGCAGAATTCGGAGTCACCTAGTGCAG	7040 fluorescence intensity (a.u.)
ACCATGCCACGTCAGCGAAACCGGCCTTATATGCTACTGGCGGAGTCACCTAGTGCAG	22800 fluorescence intensity (a.u.)
AGGCAGCCATATATATGGTTCTGACGTTGCCTTGCTGAATCGGAGTCACCTAGTGCAG	18400 fluorescence intensity (a.u.)
TGCTATGCTAATGTGCGTGCCCATCGTACGGGATGTTTGACGGAGTCACCTAGTGCAG	20400 fluorescence intensity (a.u.)
TCAAAACAACCATAATGACGAAACTGTTCACACATTGTGACGGAGTCACCTAGTGCAG	18300 fluorescence intensity (a.u.)
GCAAGCGCCTTCGCCTGCCACGCCACCGCCTCCGCCCTTACGGAGTCACCTAGTGCAG	9200 fluorescence intensity (a.u.)
GCTAGCGCGCATTGACCAAGATCCGATTTGTATGCTAGTGCGGAGTCACCTAGTGCAG	4060 fluorescence intensity (a.u.)
AGCTCGAACATGGCGCGCCGGAGCGACGGCATCAGCTCGCCGGAGTCACCTAGTGCAG	3700 fluorescence intensity (a.u.)
GGCAGCGGCGGCCGGAACGACGCCGCCGTGGATGGGGTGGCGGAGTCACCTAGTGCAG	3650 fluorescence intensity (a.u.)
CTATTGGGTGGACGCCGAAGACAGCTTCTTCCCACGCCGCCGGAGTCACCTAGTGCAG	3430 fluorescence intensity (a.u.)
ATAACCAGGCTACTACCAGCAACTTTGCTGACAGTGACTGCGGAGTCACCTAGTGCAG	3520 fluorescence intensity (a.u.)
TGAGAGTGAGAGGAGGAGAGAGCTAAGTTAGTTAGAGCTCCGGAGTCACCTAGTGCAG	21600 fluorescence intensity (a.u.)
TTGAAATTCATTATTGTCAGCATTGTCATCCTGAGTAGATCGGAGTCACCTAGTGCAG	6500 fluorescence intensity (a.u.)
ATTAACACTAATTTACATCATTCTCAGCCTGTTTTCACTTCGGAGTCACCTAGTGCAG	3440 fluorescence intensity (a.u.)
TGGCTACTCCTAATAATAAGATATTTTGATTGAATATGACCGGAGTCACCTAGTGCAG	31800 fluorescence intensity (a.u.)
ATGGTCAAACATGTGTTCAAAATTCAACGCGTCATCTATTCGGAGTCACCTAGTGCAG	5400 fluorescence intensity (a.u.)
TTCGTGGAATGGAAACCTCCACGTGCTCCTCTTATCCTCACGGAGTCACCTAGTGCAG	5770 fluorescence intensity (a.u.)
CATGGCTACATTCAGAGCCCCGACGGTGATGTCATCGACTCGGAGTCACCTAGTGCAG	9070 fluorescence intensity (a.u.)
AGCACCAGGTGTTTATTAGCTTCTCTCCACGTCTTCTTCCCGGAGTCACCTAGTGCAG	6240 fluorescence intensity (a.u.)

As a short view, part of the list above:
Sequence	binding signal
GCAAGCGCCTTCGCCTGCCACGCCACCGCCTCCGCCCTTACGGAGTCACCTAGTGCAG	9200 fluorescence intensity (a.u.)
GCTAGCGCGCATTGACCAAGATCCGATTTGTATGCTAGTGCGGAGTCACCTAGTGCAG	4060 fluorescence intensity (a.u.)
AGCTCGAACATGGCGCGCCGGAGCGACGGCATCAGCTCGCCGGAGTCACCTAGTGCAG	3700 fluorescence intensity (a.u.)
GGCAGCGGCGGCCGGAACGACGCCGCCGTGGATGGGGTGGCGGAGTCACCTAGTGCAG	3650 fluorescence intensity (a.u.)
CTATTGGGTGGACGCCGAAGACAGCTTCTTCCCACGCCGCCGGAGTCACCTAGTGCAG	3430 fluorescence intensity (a.u.)
ATAACCAGGCTACTACCAGCAACTTTGCTGACAGTGACTGCGGAGTCACCTAGTGCAG	3520 fluorescence intensity (a.u.)
TGAGAGTGAGAGGAGGAGAGAGCTAAGTTAGTTAGAGCTCCGGAGTCACCTAGTGCAG	21600 fluorescence intensity (a.u.)
TTGAAATTCATTATTGTCAGCATTGTCATCCTGAGTAGATCGGAGTCACCTAGTGCAG	6500 fluorescence intensity (a.u.)
ATTAACACTAATTTACATCATTCTCAGCCTGTTTTCACTTCGGAGTCACCTAGTGCAG	3440 fluorescence intensity (a.u.)

Source: article PMC7819943, “Rice protein-binding microarrays: a tool to detect cis-acting elements near promoter regions in rice”
